# Substitutions are numbered along the chain they refer to. Some of the results follow. For some assays here: At the low end of the ranking the order means little.
# What was measured:
# Settings in all cases: yeast three-hybrid, YBZ-1, SC-Leu-His + 0.5 mM 3-AT, 4 days
# [1] = biological target: T1, PUM1 PUF domain R4-SPC N971S + H972P + Q975C (Homo sapiens) (UniProt Q14671)
# T1 sequence: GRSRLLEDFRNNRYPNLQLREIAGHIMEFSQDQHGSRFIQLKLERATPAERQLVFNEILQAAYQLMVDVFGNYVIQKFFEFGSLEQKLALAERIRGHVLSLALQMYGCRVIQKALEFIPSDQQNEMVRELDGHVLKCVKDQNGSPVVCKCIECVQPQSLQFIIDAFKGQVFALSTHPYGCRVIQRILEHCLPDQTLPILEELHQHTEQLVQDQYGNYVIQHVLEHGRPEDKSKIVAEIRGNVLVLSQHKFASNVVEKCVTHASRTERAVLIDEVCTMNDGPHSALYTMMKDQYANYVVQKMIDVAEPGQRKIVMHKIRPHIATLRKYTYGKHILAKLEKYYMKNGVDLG
# [2] = biological target: T2, PUM1 PUF domain R4-SPG N971S + H972P + Q975G (UniProt Q14671)
# T2 sequence: T1 sequence with C148G
# [3] = biological target: T3, PUM1 PUF domain R4-SPL N971S + H972P + Q975L (UniProt Q14671)
# T3 sequence: T1 sequence with C148L
# [4] = biological target: T4, PUM1 PUF domain R4-SPR N971S + H972P + Q975R (UniProt Q14671)
# T4 sequence: T1 sequence with C148R
# [5] = biological target: T5, PUM1 PUF domain R4-SPS N971S + H972P + Q975S (UniProt Q14671)
# T5 sequence: T1 sequence with C148S
# [6] = biological target: T6, PUM1 PUF domain R4-SPT N971S + H972P + Q975T (UniProt Q14671)
# T6 sequence: T1 sequence with C148T
# [7] = biological target: T7, PUM1 PUF domain R4-SPV N971S + H972P + Q975V (UniProt Q14671)
# T7 sequence: T1 sequence with C148V
# [8] = biological target: T8, PUM1 PUF domain R4-SPW N971S + H972P + Q975W (UniProt Q14671)
# T8 sequence: T1 sequence with C148W
# [9] = biological target: T9, PUM1 PUF domain R4-SQR N971S + H972Q + Q975R (UniProt Q14671)
# T9 sequence: T1 sequence with P145Q, C148R
# [10] = biological target: T10, PUM1 PUF domain R4-SQS N971S + H972Q + Q975S (UniProt Q14671)
# T10 sequence: T1 sequence with P145Q, C148S
# [11] = biological target: T11, PUM1 PUF domain R4-SRA N971S + H972R + Q975A (Homo sapiens) (UniProt Q14671)
# T11 sequence: T1 sequence with P145R, C148A
# [12] = biological target: T12, PUM1 PUF domain R4-SRC N971S + H972R + Q975C (UniProt Q14671)
# T12 sequence: T1 sequence with P145R
# [13] = biological target: T13, PUM1 PUF domain R4-SRG N971S + H972R + Q975G (Homo sapiens) (UniProt Q14671)
# T13 sequence: T1 sequence with P145R, C148G
# [14] = biological target: T14, PUM1 PUF domain R4-SRI N971S + H972R + Q975I (UniProt Q14671)
# T14 sequence: T1 sequence with P145R, C148I
# [15] = biological target: T15, PUM1 PUF domain R4-SRL N971S + H972R + Q975L (Homo sapiens) (UniProt Q14671)
# T15 sequence: T1 sequence with P145R, C148L
# [16] = biological target: T16, PUM1 PUF domain R4-SRM N971S + H972R + Q975M (UniProt Q14671)
# T16 sequence: T1 sequence with P145R, C148M
# [17] = biological target: T17, PUM1 PUF domain R4-SRR N971S + H972R + Q975R (Homo sapiens) (UniProt Q14671)
# T17 sequence: T1 sequence with P145R, C148R
# [18] = biological target: T18, PUM1 PUF domain R4-SRS N971S + H972R + Q975S (UniProt Q14671)
# T18 sequence: T1 sequence with P145R, C148S
# [19] = biological target: T19, PUM1 PUF domain R4-SRV N971S + H972R + Q975V (Homo sapiens) (UniProt Q14671)
# T19 sequence: T1 sequence with P145R, C148V
# [20] = biological target: T20, PUM1 PUF domain R4-SRW N971S + H972R + Q975W (UniProt Q14671)
# T20 sequence: T1 sequence with P145R, C148W
# [21] = biological target: T21, PUM1 PUF domain R4-SRY N971S + H972R + Q975Y (UniProt Q14671)
# T21 sequence: T1 sequence with P145R, C148Y
# [22] = biological target: T22, PUM1 PUF domain R4-SWG N971S + H972W + Q975G (UniProt Q14671)
# T22 sequence: T1 sequence with P145W, C148G
# [23] = biological target: T23, PUM1 PUF domain R4-SWP N971S + H972W + Q975P (UniProt Q14671)
# T23 sequence: T1 sequence with P145W, C148P
# [24] = biological target: T24, PUM1 PUF domain R4-SYP N971S + H972Y + Q975P (UniProt Q14671)
# T24 sequence: T1 sequence with P145Y, C148P
# [25] = biological target: T25, PUM1 PUF domain R4-TAQ N971T + H972A (UniProt Q14671)
# T25 sequence: T1 sequence with S144T, P145A, C148Q
# [26] = biological target: T26, PUM1 PUF domain R4-TNG N971T + H972N + Q975G (UniProt Q14671)
# T26 sequence: T1 sequence with S144T, P145N, C148G
# [27] = biological target: T27, PUM1 PUF domain R4-TPA N971T + H972P + Q975A (Homo sapiens) (UniProt Q14671)
# T27 sequence: T1 sequence with S144T, C148A
# [28] = biological target: T28, PUM1 PUF domain R4-TPC N971T + H972P + Q975C (UniProt Q14671)
# T28 sequence: T1 sequence with S144T
# [29] = biological target: T29, PUM1 PUF domain R4-TPG N971T + H972P + Q975G (UniProt Q14671)
# T29 sequence: T1 sequence with S144T, C148G
# [30] = biological target: T30, PUM1 PUF domain R4-TPN N971T + H972P + Q975N (UniProt Q14671)
# T30 sequence: T1 sequence with S144T, C148N
# [31] = biological target: T31, PUM1 PUF domain R4-TPS N971T + H972P + Q975S (UniProt Q14671)
# T31 sequence: T1 sequence with S144T, C148S
# [32] = biological target: T32, PUM1 PUF domain R4-TPV N971T + H972P + Q975V (UniProt Q14671)
# T32 sequence: T1 sequence with S144T, C148V
# [33] = biological target: T33, PUM1 PUF domain R4-TRG N971T + H972R + Q975G (UniProt Q14671)
# T33 sequence: T1 sequence with S144T, P145R, C148G
# [34] = biological target: T34, PUM1 PUF domain R4-TRT N971T + H972R + Q975T (UniProt Q14671)
# T34 sequence: T1 sequence with S144T, P145R, C148T
# [35] = biological target: T35, PUM1 PUF domain R4-VCA N971V + H972C + Q975A (UniProt Q14671)
# T35 sequence: T1 sequence with S144V, P145C, C148A
# [36] = biological target: T36, PUM1 PUF domain R4-VFP N971V + H972F + Q975P (UniProt Q14671)
# T36 sequence: T1 sequence with S144V, P145F, C148P
# [37] = biological target: T37, PUM1 PUF domain R4-VGI N971V + H972G + Q975I (UniProt Q14671)
# T37 sequence: T1 sequence with S144V, P145G, C148I
# [38] = biological target: T38, PUM1 PUF domain R4-VGL N971V + H972G + Q975L (Homo sapiens) (UniProt Q14671)
# T38 sequence: T1 sequence with S144V, P145G, C148L
# [39] = biological target: T39, PUM1 PUF domain R4-VGY N971V + H972G + Q975Y (UniProt Q14671)
# T39 sequence: T1 sequence with S144V, P145G, C148Y
# [40] = biological target: T40, PUM1 PUF domain R4-VLY N971V + H972L + Q975Y (UniProt Q14671)
# T40 sequence: T1 sequence with S144V, P145L, C148Y
# [41] = biological target: T41, PUM1 PUF domain R4-VNA N971V + H972N + Q975A (UniProt Q14671)
# T41 sequence: T1 sequence with S144V, P145N, C148A
sequence,measurement,setting,value
GGCUAGAACUAGUGGAUCCCCCGGCGCCCGGCGGCUCGAGCCCGGGUAAGUGUAGAUAGUCUGCAUGCCGCCGGGCGCCAUGCCUGCAGGUCGACUCUAGAAAACAUG,binding signal (log2 enrichment (interaction score)),[1],-1.68
same,binding signal (log2 enrichment (interaction score)),[2],< -8.75
same,binding signal (log2 enrichment (interaction score)),[3],< -8.07
same,binding signal (log2 enrichment (interaction score)),[4],< -7.65
same,binding signal (log2 enrichment (interaction score)),[5],< -6.96
same,binding signal (log2 enrichment (interaction score)),[6],< -7.61
same,binding signal (log2 enrichment (interaction score)),[7],< -7.68
same,binding signal (log2 enrichment (interaction score)),[8],< -8.13
same,binding signal (log2 enrichment (interaction score)),[9],< -8.02
same,binding signal (log2 enrichment (interaction score)),[10],< -6.54
same,binding signal (log2 enrichment (interaction score)),[11],-4.91
same,binding signal (log2 enrichment (interaction score)),[12],< -5.86
same,binding signal (log2 enrichment (interaction score)),[13],-3.78
same,binding signal (log2 enrichment (interaction score)),[14],< -6.38
same,binding signal (log2 enrichment (interaction score)),[15],-0.32
same,binding signal (log2 enrichment (interaction score)),[16],< -7.57
same,binding signal (log2 enrichment (interaction score)),[17],-6
same,binding signal (log2 enrichment (interaction score)),[18],< -6.89
same,binding signal (log2 enrichment (interaction score)),[19],-0.65
same,binding signal (log2 enrichment (interaction score)),[20],< -7.76
same,binding signal (log2 enrichment (interaction score)),[21],< -7.39
same,binding signal (log2 enrichment (interaction score)),[22],< -5.07
same,binding signal (log2 enrichment (interaction score)),[23],< -5.67
same,binding signal (log2 enrichment (interaction score)),[24],< -6.42
same,binding signal (log2 enrichment (interaction score)),[25],< -6.51
same,binding signal (log2 enrichment (interaction score)),[26],< -6.49
same,binding signal (log2 enrichment (interaction score)),[27],-0.12
same,binding signal (log2 enrichment (interaction score)),[28],< -6.12
same,binding signal (log2 enrichment (interaction score)),[29],< -8.49
same,binding signal (log2 enrichment (interaction score)),[30],< -5.57
same,binding signal (log2 enrichment (interaction score)),[31],< -7.51
same,binding signal (log2 enrichment (interaction score)),[32],< -5.8
same,binding signal (log2 enrichment (interaction score)),[33],< -7.52
same,binding signal (log2 enrichment (interaction score)),[34],< -5.1
same,binding signal (log2 enrichment (interaction score)),[35],< -6.04
same,binding signal (log2 enrichment (interaction score)),[36],< -5.08
same,binding signal (log2 enrichment (interaction score)),[37],< -5.96
same,binding signal (log2 enrichment (interaction score)),[38],-3.46
same,binding signal (log2 enrichment (interaction score)),[39],< -7.66
same,binding signal (log2 enrichment (interaction score)),[40],< -6.97
same,binding signal (log2 enrichment (interaction score)),[41],< -5.37

# Fetched one by one from the entries so far:
sequence,measurement,setting,value
GGCUAGAACUAGUGGAUCCCCCGGCGCCCGGCGGCUCGAGCCCGGGUAAGUGUAGAUAGUCUGCAUGCCGCCGGGCGCCAUGCCUGCAGGUCGACUCUAGAAAACAUG,binding signal (log2 enrichment (interaction score)),[39],< -7.66
same,binding signal (log2 enrichment (interaction score)),[36],< -5.08

# From paper PMC8384837
